{
  "source": "patent US20110118313A1",
  "about": "“IDENTIFICATION OF A MOLECULAR SIGNATURE FOR ANTIPSYCHOTICS AND SERMS” (priority 2008, published 2011)",
  "key": {"[1]": {"system": "blood cells from patients with psychotic disorders", "conditions": "cited from earlier work"}, "[2]": {"conditions": "2-3 weeks of antipsychotic treatment, schizophrenic patients; cited from earlier work"}, "ARPE-19 cell line": {"system": "ARPE-19 cell line", "assay": "Gene expression profiling (U133A2.0 microarrays) of drug-treated ARPE-19 cells; antipsychotic signature of lipid homeostasis genes", "assay_type": "cell-based, human", "conditions": "ARPE-19, 10 μM, 24 hrs", "source_text": "The retinal pigment epithelia cell line, ARPE-19/HPV-16, was chosen to establish a database of drug profiles because it is from non-cancerous human origin, with a normal karyotype, and can easily be grown as monolayer in 96-well plates. H4 is a hypertriploid cell line from glioblastoma origin, which was used only for independent replication. Cell lines were propagated according to supplier's specifications (ATCC Manassas, Va.). Compounds were obtained from Sigma (St. Louis, Mo.) or Vanda Pharmaceuticals (Rockville, Md.). Cells were aliquoted to 96-well plates (˜2×10e5 cells/well) and incubated for 24 hrs prior to providing fresh media with a drug, or the drug vehicle (water, dimethyl sulfoxide, ethanol, methanol, or phosphate-buffered saline solution). Drugs were diluted 1000 fold in buffered Advanced D-MEM/F-12 culture medium (Invitrogen, Carlsbad, Calif.) containing non-essential amino acids and 110 mg/L sodium pyruvate. In these conditions, no significant changes of pH were expected, which was confirmed by the monitoring of the pH indicator present in the medium. […]\nCells were harvested 24 hrs after treatment and RNA extracted using the RNeasy 96 protocol (Qiagen, Valencia, Calif.). […] A total of 708 microarrays were analysed including 74 for the 18 antipsychotics, 499 for the other 448 compounds, and 135 for vehicle controls. […]"}},
  "note": "For at least one compound, name, drawing or mass did not settle the structure.",
  "data": [
    {"smiles": "Cc1cc2c(s1)Nc1ccccc1N=C2N1CCN(C)CC1", "note": "[olanzapine]", "values": [
      {"measurement": "expression of SCD and FASN in blood cells", "setting": "[1]", "result": "Up-regulation"},
      {"measurement": "plasma levels of certain lipid classes (PE, PC, TG, LY)", "setting": "[2]", "result": "significant increases"},
      {"measurement": "effect on lipid homeostasis (gene expression signature)", "setting": "ARPE-19 cell line", "result": "share a common gene expression signature"},
      {"measurement": "over-expression of RNAs for the desaturase genes FADS1 and FADS2", "setting": "ARPE-19 cell line", "result": "over-expression"}
    ]}
  ]
}
